The target of one experiment is MKK7 (MAPKK) (UniProt O14733). As to the kind of experiment: co-IP; immunoprecipitation and immunoblot from 293 T cells, unstimulated and treated with TNFα for the indicated times after serum starvation. (In general: A western blot detects proteins with antibodies after separation by electrophoresis.)
In the next experiment the target is MLK3 (MAPKKK) (UniProt Q16584). Described as above.
In experiment [1] the target is T1, JIP1 scaffold protein (mouse) (UniProt Q9WVI9).
T1 sequence: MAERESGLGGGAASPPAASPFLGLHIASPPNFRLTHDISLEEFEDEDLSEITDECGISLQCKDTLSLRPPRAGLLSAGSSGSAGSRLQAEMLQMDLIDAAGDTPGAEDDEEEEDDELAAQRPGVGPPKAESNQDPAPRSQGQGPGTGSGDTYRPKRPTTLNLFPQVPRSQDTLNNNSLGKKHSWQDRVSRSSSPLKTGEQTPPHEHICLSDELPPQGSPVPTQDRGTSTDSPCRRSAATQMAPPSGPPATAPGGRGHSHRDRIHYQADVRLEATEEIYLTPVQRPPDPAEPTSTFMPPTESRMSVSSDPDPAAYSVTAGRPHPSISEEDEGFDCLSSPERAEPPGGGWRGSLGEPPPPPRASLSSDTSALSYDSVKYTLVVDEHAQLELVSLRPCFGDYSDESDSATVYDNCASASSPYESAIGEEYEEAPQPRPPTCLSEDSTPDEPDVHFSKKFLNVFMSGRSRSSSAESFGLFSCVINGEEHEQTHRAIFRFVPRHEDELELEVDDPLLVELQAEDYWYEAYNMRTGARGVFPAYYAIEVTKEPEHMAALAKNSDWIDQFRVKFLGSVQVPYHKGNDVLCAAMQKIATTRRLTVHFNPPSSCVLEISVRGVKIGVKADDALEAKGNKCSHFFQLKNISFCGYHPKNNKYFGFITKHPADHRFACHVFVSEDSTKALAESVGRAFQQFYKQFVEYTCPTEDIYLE
The experiment is described as above.

By UniProt entry, the sequences of proteins in these tests, tags left out.
UniProt O14733: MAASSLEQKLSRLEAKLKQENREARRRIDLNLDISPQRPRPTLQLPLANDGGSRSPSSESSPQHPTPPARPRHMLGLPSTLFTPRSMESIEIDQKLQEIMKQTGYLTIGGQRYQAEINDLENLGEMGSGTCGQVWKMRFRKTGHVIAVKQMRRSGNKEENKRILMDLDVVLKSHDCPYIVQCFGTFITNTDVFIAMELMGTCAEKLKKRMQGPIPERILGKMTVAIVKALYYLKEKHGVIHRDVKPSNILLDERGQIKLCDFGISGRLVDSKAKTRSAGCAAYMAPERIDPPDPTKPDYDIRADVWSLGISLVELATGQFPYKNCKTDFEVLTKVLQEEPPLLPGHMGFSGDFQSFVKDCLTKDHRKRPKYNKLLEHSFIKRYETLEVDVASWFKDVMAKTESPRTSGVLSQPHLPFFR
UniProt Q16584: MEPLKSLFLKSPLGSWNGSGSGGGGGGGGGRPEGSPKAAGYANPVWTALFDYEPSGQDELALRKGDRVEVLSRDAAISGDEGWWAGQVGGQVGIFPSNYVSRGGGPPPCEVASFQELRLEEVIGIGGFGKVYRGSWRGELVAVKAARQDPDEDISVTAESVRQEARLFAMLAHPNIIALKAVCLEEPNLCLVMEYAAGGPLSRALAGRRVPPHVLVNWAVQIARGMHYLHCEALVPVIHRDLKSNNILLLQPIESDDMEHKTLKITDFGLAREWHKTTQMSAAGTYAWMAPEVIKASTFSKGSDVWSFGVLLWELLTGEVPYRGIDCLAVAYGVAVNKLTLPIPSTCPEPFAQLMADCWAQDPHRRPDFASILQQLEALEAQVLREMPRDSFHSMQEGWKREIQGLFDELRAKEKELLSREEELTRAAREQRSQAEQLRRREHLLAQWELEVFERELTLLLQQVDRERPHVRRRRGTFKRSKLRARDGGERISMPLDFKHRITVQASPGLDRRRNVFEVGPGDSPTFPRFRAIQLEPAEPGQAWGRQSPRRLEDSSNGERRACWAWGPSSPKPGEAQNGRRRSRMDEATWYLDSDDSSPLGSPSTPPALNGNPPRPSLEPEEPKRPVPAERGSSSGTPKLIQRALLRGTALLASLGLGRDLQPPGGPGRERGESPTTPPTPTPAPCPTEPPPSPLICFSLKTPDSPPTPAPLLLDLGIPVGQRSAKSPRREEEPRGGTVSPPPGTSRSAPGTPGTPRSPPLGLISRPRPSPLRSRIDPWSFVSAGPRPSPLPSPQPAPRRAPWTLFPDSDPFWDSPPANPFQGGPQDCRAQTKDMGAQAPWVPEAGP

The target in experiment [2] is T2, JIP1, bacterially expressed (mouse) (UniProt Q9WVI9).
T2 sequence: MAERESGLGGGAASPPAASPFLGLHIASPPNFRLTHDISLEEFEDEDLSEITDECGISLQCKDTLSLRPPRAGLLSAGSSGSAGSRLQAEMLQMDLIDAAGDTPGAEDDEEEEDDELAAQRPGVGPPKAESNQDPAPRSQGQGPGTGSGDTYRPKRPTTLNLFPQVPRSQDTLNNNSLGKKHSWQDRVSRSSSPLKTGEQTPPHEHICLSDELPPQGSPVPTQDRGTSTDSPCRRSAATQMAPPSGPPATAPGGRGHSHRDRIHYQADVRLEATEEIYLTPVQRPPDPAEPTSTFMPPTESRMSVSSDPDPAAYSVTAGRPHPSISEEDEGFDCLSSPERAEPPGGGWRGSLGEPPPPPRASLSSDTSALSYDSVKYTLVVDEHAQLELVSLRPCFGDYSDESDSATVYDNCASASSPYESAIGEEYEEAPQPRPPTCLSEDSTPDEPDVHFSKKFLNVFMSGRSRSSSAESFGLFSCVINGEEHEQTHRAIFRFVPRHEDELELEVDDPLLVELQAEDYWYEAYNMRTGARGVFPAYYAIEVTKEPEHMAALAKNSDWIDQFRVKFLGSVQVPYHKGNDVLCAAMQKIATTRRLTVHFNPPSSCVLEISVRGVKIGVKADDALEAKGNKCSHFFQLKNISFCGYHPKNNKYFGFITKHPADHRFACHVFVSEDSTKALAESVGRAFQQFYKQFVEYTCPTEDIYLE
As to the kind of experiment: pull-down; in vitro binding assay with bacterially expressed purified proteins; prey and bait incubated 2 h, glutathione sepharose 2 h, washed five times with PBS, immunoblot; both purified.

Experiment [3] deals with MLK3, bacterially expressed (UniProt Q16584). The experiment is described as above.
The target of experiment [4] is MKK7, bacterially expressed (UniProt O14733). The description is as above.

These are yes or no findings as the source states them, for the method shown. For some assays here: In cells and extracts the contact can be indirect. Some entries that bind do so weakly or less than the wild type.

B1: JIP1 scaffold protein (protein, UniProt Q9WVI9 1-707)
chain: MAERESGLGGGAASPPAASPFLGLHIASPPNFRLTHDISLEEFEDEDLSEITDECGISLQCKDTLSLRPPRAGLLSAGSSGSAGSRLQAEMLQMDLIDAAGDTPGAEDDEEEEDDELAAQRPGVGPPKAESNQDPAPRSQGQGPGTGSGDTYRPKRPTTLNLFPQVPRSQDTLNNNSLGKKHSWQDRVSRSSSPLKTGEQTPPHEHICLSDELPPQGSPVPTQDRGTSTDSPCRRSAATQMAPPSGPPATAPGGRGHSHRDRIHYQADVRLEATEEIYLTPVQRPPDPAEPTSTFMPPTESRMSVSSDPDPAAYSVTAGRPHPSISEEDEGFDCLSSPERAEPPGGGWRGSLGEPPPPPRASLSSDTSALSYDSVKYTLVVDEHAQLELVSLRPCFGDYSDESDSATVYDNCASASSPYESAIGEEYEEAPQPRPPTCLSEDSTPDEPDVHFSKKFLNVFMSGRSRSSSAESFGLFSCVINGEEHEQTHRAIFRFVPRHEDELELEVDDPLLVELQAEDYWYEAYNMRTGARGVFPAYYAIEVTKEPEHMAALAKNSDWIDQFRVKFLGSVQVPYHKGNDVLCAAMQKIATTRRLTVHFNPPSSCVLEISVRGVKIGVKADDALEAKGNKCSHFFQLKNISFCGYHPKNNKYFGFITKHPADHRFACHVFVSEDSTKALAESVGRAFQQFYKQFVEYTCPTEDIYLE
In the case of B1, the binding entry with MKK7 (MAPKK) and with MLK3 (MAPKKK) was “binds” throughout.

B2: PTPN1 (non-transmembrane protein tyrosine phosphatase 1) (enzyme, UniProt P18031 1-435)
chain: MEMEKEFEQIDKSGSWAAIYQDIRHEASDFPCRVAKLPKNKNRNRYRDVSPFDHSRIKLHQEDNDYINASLIKMEEAQRSYILTQGPLPNTCGHFWEMVWEQKSRGVVMLNRVMEKGSLKCAQYWPQKEEKEMIFEDTNLKLTLISEDIKSYYTVRQLELENLTTQETREILHFHYTTWPDFGVPESPASFLNFLFKVRESGSLSPEHGPVVVHCSAGIGRSGTFCLADTCLLLMDKRKDPSSVDIKKVLLEMRKFRMGLIQTADQLRFSYLAVIEGAKFIMGDSSVQDQWKELSHEDLEPPPEHIPPPPRPPKRILEPHNGKCREFFPNHQWVKEETQEDKDCPIKEEKGSPLNAAPYGIESMSQDTEVRSRVVGGSLRGAQAASPAKGEPSLPEKDEDHALSYWKPFLVNMCVATVLTAGAYLCYRFLFNSNT
With B2, the binding result (with MKK7 (MAPKK); with MLK3 (MAPKKK); in experiment [1]) was “binds” throughout.

B3: PTPN1, bacterially expressed (enzyme, UniProt P18031 1-435)
chain: MEMEKEFEQIDKSGSWAAIYQDIRHEASDFPCRVAKLPKNKNRNRYRDVSPFDHSRIKLHQEDNDYINASLIKMEEAQRSYILTQGPLPNTCGHFWEMVWEQKSRGVVMLNRVMEKGSLKCAQYWPQKEEKEMIFEDTNLKLTLISEDIKSYYTVRQLELENLTTQETREILHFHYTTWPDFGVPESPASFLNFLFKVRESGSLSPEHGPVVVHCSAGIGRSGTFCLADTCLLLMDKRKDPSSVDIKKVLLEMRKFRMGLIQTADQLRFSYLAVIEGAKFIMGDSSVQDQWKELSHEDLEPPPEHIPPPPRPPKRILEPHNGKCREFFPNHQWVKEETQEDKDCPIKEEKGSPLNAAPYGIESMSQDTEVRSRVVGGSLRGAQAASPAKGEPSLPEKDEDHALSYWKPFLVNMCVATVLTAGAYLCYRFLFNSNT
As for B3, the binding result in experiment [2], in experiment [3] and in experiment [4] was “binds” each time.

(Values after paper PMC5636874.)
